# Primary screen of a compound library

Measurements from “University of Dundee, Small-Polar-MMV Screening Library” (2021), ChEMBL document CHEMBL3988442.

Values are the deposited “Percent Effect”, in %. How 0% and 100% were set is not recorded. Most values in the screen are low, and negative values occur. This is an unselected part of the compounds tested. Two or more numbers in one place are separate tests of the same structure; such repeats can differ widely.

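Viability assay of Plasmodium falciparum sporozoites; the read-out is not stated. The concentration is filed as 10 mM, unlikely as a test dose, so the dose is not known. Higher reads as lower viability (inferred: compounds with an IC50 in retests scored well above the rest). Strong results were mostly tested again. Of about 34,000 compounds tested this way, about 280 (0.84%) reached 50% or more in at least one test.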

Cn1nnc2c1C(COCC1CC1)CN(C(=O)CC1=CCCCC1)C2 (stereo not shown) read 6.729%.
COc1ccc(Cl)cc1C(=O)N(C)Cc1cc(C)on1 read -15.87%.
CCC(CC)C(=O)N1CCCc2c(cnn2C)C1 read -2.254%.
CCCS(=O)(=O)N1CCC(NC(=O)c2cc(CC)c(C)s2)CC1 read -14.71%.
CN1CCCCC1c1ncc2c(n1)CCN(Cc1ccccc1Cl)C2 (stereo not shown) read -16.72%.
CCNc1ncc(CN2CCOC(Cc3cccc(OC)c3)C2)cn1 (stereo not shown) read 0.4325%.
Cc1nc(C)n(CC2CCCN(Cc3nnc(-c4ccco4)o3)C2)n1 (stereo not shown) read -9.132%.
Cc1cc(C)n(CC2CCCCN2C(=O)c2ccc(C(N)=O)cc2)n1 (stereo not shown) read 3.663%.
O=C(NCc1ccncc1)Nc1cc(C(F)(F)F)c[nH]c1=O read 12.21%.
c1cnnc(NCC2CN(Cc3ccon3)CCO2)c1 (stereo not shown) read 4.301%.
[H][C@@]12CCCN1C[C@@H](CCSC)N(Cc1cnn(CC)c1)C2 read -5.685%.
Cc1cc(NCc2csc(C)n2)no1 read 5.085%.
Cc1nn(C)c(C)c1C1CCCN1Cc1ccc(C(N)=O)cc1 (stereo not shown) read 9.826%.
OCC(O)CSCc1cc(Cl)ccc1Cl (stereo not shown) read 4.263%.
c1cnc(C2CCCN(Cc3ccsc3)C2)cn1 (stereo not shown) read -2.947%.
CC(NC(=O)NCCCn1cncn1)c1ccc2c(c1)CC(=O)N2 (stereo not shown) read 3.485%.
O=C(O)C(F)(F)F.O=C(O)C(F)(F)F.[H][C@@]12CN(C(=O)c3ccsc3)C[C@]1([H])OCCN2CCN1CCCC1 read 0.08591%.
CCc1ccc(C(=O)N2CCN(CC(O)c3ccccc3)CC2)o1 (stereo not shown) read 11.43%.
CCN1CC2(CCNCC2)COc2ccccc2S1(=O)=O.O=C(O)C(F)(F)F read 5.702%.
[H][C@@]12CS(=O)(=O)C[C@]1([H])N(Cc1ccc(OC)c(F)c1)CCN2C(=O)N(C)C read -0.7718%.
O=C(O)C(F)(F)F.c1cnn(Cc2nnc3n2CCCN(CC2CCOCC2)C3)c1 read 0.783%.
Cc1oncc1C(=O)N1CCC2(CC1)CC(c1ccccc1)C(=O)N2C (stereo not shown) read -5.736%.
C[C@H]1CN(C(=O)N(C)C)C[C@@]12CCN(c1ccsc1)C2=O read -2.32%.
[H][C@]12CNC[C@@]1(C(=O)NCc1cccc3[nH]ccc13)CN(C(=O)COC)C2 read -4.912%.
Cn1ncc(Cl)c1C(=O)N1CCC(c2nnsc2S(C)(=O)=O)CC1 read 6.207%.
Cn1cc(-c2ncc3c(c2C(=O)O)CCN(Cc2ccccn2)C3)cn1.O=C(O)C(F)(F)F.O=C(O)C(F)(F)F read -5.232%.
Cc1nc(N2CCN(C(=O)c3ccsc3)CC2)c2cnn(C)c2n1 read 11.84%.
CN(C)c1nc(CNC(=O)NC2COc3ccccc32)cs1 (stereo not shown) read 1.424%.
COc1cccc(CCNCc2c(C)nn(C)c2N(C)C)c1 read 2.143%.
O=C(Cc1cccs1)NCc1ccnc(OC2CCOCC2)c1 read -20.11%.
CC(=O)N1CCOC(c2ccnc(N(C)C)n2)C1 (stereo not shown) read 3.741%.
O=C(O)C(F)(F)F.[H][C@@]12CCCO[C@]1([H])[C@H](NC(=O)c1cnn(C)c1)CN2Cc1cccs1 read -7.9%.
CCN(CC)C(=O)C1CCC2(CCNCC2)CO1.Cl (stereo not shown) read -11.55%.
COCc1ccccc1CNC(=O)CN1CCCC1c1noc(C)n1 (stereo not shown) read 13.84%.
COc1cc(C(=O)Nc2nc(C)no2)ccc1C read 3.207%.
CC(C)(C)c1nc(CN2CCOC(Cn3cccn3)C2)no1 (stereo not shown) read 3.566%.
COc1cc(C2CC(=O)Oc3cc(C)[nH]c(=O)c32)ccc1OC(F)F (stereo not shown) read 1.754%.
COc1cc(C(=O)NCCc2cccc(C)c2)on1 read -16.98%.
COc1cccc(CC(=O)NCc2cnc(C)nc2C2CCCN2C)c1 (stereo not shown) read -3.797%.
Cc1cccc2c1cnn2CCCNC(=O)CCCC(=O)O read -10.03%.
CN1CC(=O)N(c2ccsc2)CC12CCN(C(=O)c1ccccc1)C2.O=C(O)C(F)(F)F (stereo not shown) read -89.37%.
CCc1nc(C2CCCN2C(=O)c2ccc3c(c2)nnn3CC)no1 (stereo not shown) read -2.451%.
Cc1ccc(OCc2occc2C(=O)O)cc1 read 2.336%.
NC(=O)C1(CCCc2ccccn2)CCCN(Cc2ncc[nH]2)C1 (stereo not shown) read 3.864%.
[H][C@]12CCCCN1CCC[C@H]2CCC(=O)N1Cc2nc(C)[nH]c(=O)c2C1 read -3.893%.
Cc1cc(C(=O)N2CCCC2)ccc1NCC(=O)N1CCCCC1C (stereo not shown) read 10.88%.
COC(=O)N1CCCC(C(=O)NCCc2c[nH]c3cc(C)ccc23)C1 (stereo not shown) read -0.2747%.
CCc1nccn1-c1cncc(C2CCN(C(=O)COC)CC2)n1 read 8.757%.
C[C@@H]1CN(C(=O)c2ccc(=O)[nH]c2)CC[C@@]1(O)C1CCOCC1 read 3.07%.
CCc1c(C)sc2nc3n(CCN4CCOCC4)nc(SC)n3c(=O)c12 read 11.7% & 9.402%.
Cc1cc(NC(=O)CCCn2ccnc2C)nc(C(C)C)n1 read -6.036%.
CC(Cc1ccc(C(F)(F)F)cc1)C(=O)N1CCCS1(=O)=O (stereo not shown) read 0.5488%.
CCc1nnsc1C(=O)N1CCCN(Cc2ccc(F)cc2)CC1 read -9.142%.
Cc1ccc(C(=O)N2CCOC(c3nc(-c4ncccn4)no3)C2)cc1 (stereo not shown) read 5.888%.
CC(NC(=O)CN1CCCC1=O)c1ccc(Cl)s1 (stereo not shown) read -15.46%.
CN(C)Cc1cc(C2CCN(C(=O)C3CC34CCC4)CC2)nn1C.Cl (stereo not shown) read 6.024%.
COc1ccc(-c2cc(N)on2)cc1OC read -1.053%.
Cc1ccc(CC(=O)N2CCCC(n3nc(C)cc3C)C2)cn1 (stereo not shown) read -5.357%.
Cc1cc(NC(=O)C2CN(Cc3ccccc3)CCO2)ccn1 (stereo not shown) read -6.863%.

For reference, 3 entries once more:

{"structure": "COc1cccc(CC(=O)NCc2cnc(C)nc2C2CCCN2C)c1", "stereo": "stereo not shown", "percent effect": -3.797}
{"structure": "CN(C)c1nc(CNC(=O)NC2COc3ccccc32)cs1", "stereo": "stereo not shown", "percent effect": 1.424}
{"structure": "Cc1cc(NCc2csc(C)n2)no1", "percent effect": 5.085}